The target in assay [1] is NOX4 (guinea pig (endogenous in guinea pig spermatozoa)). Nature of the assay: condition: only spermatozoa capacitated in the presence of VAS2870; co-IP; anti-NOX4 IgG crosslinked (DSS) to Protein A/G agarose, incubated at 4 °C for 12 h with 500 µg precleared guinea pig spermatozoa protein extract; Western blot for NOX2; extracts of spermatozoa capacitated in the presence of VAS2870.

For assay [2] the target is unchanged. Put plainly: co-IP; anti-NOX4 IgG crosslinked (DSS) to Protein A/G agarose, incubated at 4 °C for 12 h with 500 µg precleared guinea pig spermatozoa protein extract; Western blot for NOX2; extracts of non-capacitated spermatozoa, and of spermatozoa capacitated in the presence of calpeptin (10 µM). In general terms: Immunoblotting shows a protein as a band on a membrane.

The target is the same in assay [3]. Put plainly: co-IP; anti-NOX4 IgG crosslinked (DSS) to Protein A/G agarose, incubated at 4 °C for 12 h with 500 µg precleared guinea pig spermatozoa protein extract; Western blot for NOX2; extracts of capacitated spermatozoa.

No constants are given. Whether binding was seen depends on the method and setting. Binding seen in cells or lysates may run through a third protein. For part of these data: Binding calls can cover weak binding; strength is not graded here.

B1: NOX2 (protein, UniProt H0UXC6 1-570)
chain: MGNWAVNEGISIVVILLWLGINAFLFVHYYKLYDEEPKYFYTRKLLGKALAWARAPAACLNFNCMLILLPVCRNLLSFLRGSSACCSTRIRRQLDRNLTFHKMVAWMIALHTAIHTVAHLFNVEWCVDAQVGNSDPYSVALSKIGDKDGESYLNFAREKIKNPAGGLYVAVTRLAGVTGIVITLCLILIITSSTKTIRRSYFEVFWYTHHLFVIFFIGLAIHGAERIVRGQTAKSLEEHNIMICKQNFTEWGKIKNCPVPEFAGNPPMTWKWIVGPMFLYLCERLVRFWRSQQKVVITKVVTHPFKTIELQMKKKGFKMEVGQYIFVKCPIVSKLEWHPFTLTSAPEEDFFSIHIRIVGDWTEGLFNACGCDKQEFQDAWKLPKIAVDGPFGTASEDVFSYEVVMLVGAGIGVTPFASILKSVWYKYCNNATNLKLKKIYFYWLCRDTHAFEWFADLLQLLETQMQERNNANFLSYNIYLTGWDESQANHFAVHHDEEKDVITGLKQKTLYGRPNWDNEFKTIGSQHPNTRIGVFLCGPEALAKTLNKQCISNSDSAPRGVHFIFNKENF
In the case of B1, the binding result is on record as “no binding” in assay [1], “binds” in assay [2] and “no binding (only capacitated spermatozoa)” in assay [3].

The values above are taken from article PMC9967964.
